Assay results taken from article PMC4906373.
These are yes or no findings as the source states them, for the method shown. Binding seen in cells or lysates may run through a third protein. Some binding calls cover weakened binding; strength is not graded here.

T1: MCTS1, endogenous mouse (mouse (endogenous in brain)) (UniProt Q9DB27)
T1 sequence: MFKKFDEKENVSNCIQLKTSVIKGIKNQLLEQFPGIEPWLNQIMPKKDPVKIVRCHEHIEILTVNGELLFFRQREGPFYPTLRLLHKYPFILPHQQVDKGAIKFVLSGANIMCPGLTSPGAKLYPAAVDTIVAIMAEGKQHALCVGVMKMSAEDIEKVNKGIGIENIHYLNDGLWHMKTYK

T2: DENR (density regulated protein), endogenous mouse (mouse (endogenous in brain)) (UniProt Q9CQJ6)
T2 sequence: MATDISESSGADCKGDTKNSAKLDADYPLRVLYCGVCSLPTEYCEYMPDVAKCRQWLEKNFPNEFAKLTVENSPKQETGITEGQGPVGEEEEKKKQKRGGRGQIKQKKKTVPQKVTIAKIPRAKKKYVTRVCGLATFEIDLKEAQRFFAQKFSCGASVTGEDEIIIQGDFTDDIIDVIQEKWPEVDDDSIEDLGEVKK


What was measured:
[1] = molecular target: T1, MCTS1, endogenous mouse (mouse (endogenous in brain)); test: co-IP; neonatal P0 mouse brain lysate; immunoprecipitation with goat anti-MCTS1 antibody (2 mg total protein) or with DENR antibody, overnight at 4°C, protein A Sepharose beads; control with preimmunized sera; immunoblot
[2] = molecular target: T2, DENR (density regulated protein), endogenous mouse (mouse (endogenous in brain)); test: as above

Binder	binding [1]	binding [2]
DENR (density regulated protein), endogenous mouse (protein, UniProt Q9CQJ6 1-198) MATDISESSGADCKGDTKNSAKLDADYPLRVLYCGVCSLPTEYCEYMPDVAKCRQWLEKNFPNEFAKLTVENSPKQETGITEGQGPVGEEEEKKKQKRGGRGQIKQKKKTVPQKVTIAKIPRAKKKYVTRVCGLATFEIDLKEAQRFFAQKFSCGASVTGEDEIIIQGDFTDDIIDVIQEKWPEVDDDSIEDLGEVKK	binds	–
MCTS1, endogenous mouse (protein, UniProt Q9DB27 1-181) MFKKFDEKENVSNCIQLKTSVIKGIKNQLLEQFPGIEPWLNQIMPKKDPVKIVRCHEHIEILTVNGELLFFRQREGPFYPTLRLLHKYPFILPHQQVDKGAIKFVLSGANIMCPGLTSPGAKLYPAAVDTIVAIMAEGKQHALCVGVMKMSAEDIEKVNKGIGIENIHYLNDGLWHMKTYK	–	binds
